The campaign covered roughly 410,000 compounds. About 310 (0.076%) were called active. Inconclusive means that the source gave no clear call. Such entries were picked first, then a sample of the others. Calls come from the whole dose curve; as a rule, active = well fitted activation curve with a large enough effect; inconclusive = small, poorly fitted or top-dose-only effect, or another doubt; inactive = no such curve, though single readings can be large or run the other way. Potencies beside an inconclusive call are fits to weak or partial responses and may not hold up.
biological target: Parathyroid hormone/parathyroid hormone-related peptide receptor (Homo sapiens) (UniProt Q03431); assay: qHTS for PTHR1 Agonists: Primary Screen; details: HEK293 GP2 PTHR1 cells, GloSensor cAMP luminescence, 1 h; activation: at 115 µM (top of the series) unless noted; series mostly up to 115 µM; note: nearly all actives have a fitted effect of over 55% in size
Source text: The goal of the proposed studies is to discover new compounds that act as potent agonists on the parathyroid hormone receptor type-1 (PTHR1). The PTHR1 plays critical roles in maintaining blood calcium and phosphate levels, as well as in controlling bone remodeling. PTHR1 agonists could thus be useful for treating diseases such as hypoparathyroidism and osteoporosis. In the former disease, an agonist drug would help maintain normal blood calcium and phosphate levels under conditions of parathyroid hormone deficiency. In the latter disease, an agonist drug would stimulate new bone formation and thus reduce the risk of fracture, under conditions of bone fragility, as occurs in aging.
To that end, we performed a quantitative high-throughput screening (qHTS) of the Molecular Libraries Probe Centers Network (MLPCN) compound libraries at the NIH Chemical Genomics Center (NCGC) for the parathyroid hormone receptor type-1 (PTHR1) using a unique HEK-293-derived cell line (GP2) that expresses the PTHR1 and a glosensor cAMP reporter construct.
NIH Molecular Libraries Probe Production Centers Network [MLPCN]
NIH Chemical Genomics Center [NCGC]
Assay Submitter (PI): Thomas Gardella, Massachusetts General Hospital
4 microL are dispensed into a 1536-well micro plate to yield 3,000 cells/well. The plates are then incubated overnight, after which 4 microL of 0.5 mM of BIoTium Luciferin plus 0.5 mM IBMX are added. They are then incubated at 37 degree for one hour before 23 nL of compounds are added through pinning and then incubated at 37 degree again for another hour. After the plates are kept at room temperature for 15 min before they are read on the ViewLux to measure luminescence.
Potency is the fitted concentration of half-maximal effect.

The chains behind the UniProt entries cited, without tags or fusion partners.
UniProt Q03431, whole entry, looked up: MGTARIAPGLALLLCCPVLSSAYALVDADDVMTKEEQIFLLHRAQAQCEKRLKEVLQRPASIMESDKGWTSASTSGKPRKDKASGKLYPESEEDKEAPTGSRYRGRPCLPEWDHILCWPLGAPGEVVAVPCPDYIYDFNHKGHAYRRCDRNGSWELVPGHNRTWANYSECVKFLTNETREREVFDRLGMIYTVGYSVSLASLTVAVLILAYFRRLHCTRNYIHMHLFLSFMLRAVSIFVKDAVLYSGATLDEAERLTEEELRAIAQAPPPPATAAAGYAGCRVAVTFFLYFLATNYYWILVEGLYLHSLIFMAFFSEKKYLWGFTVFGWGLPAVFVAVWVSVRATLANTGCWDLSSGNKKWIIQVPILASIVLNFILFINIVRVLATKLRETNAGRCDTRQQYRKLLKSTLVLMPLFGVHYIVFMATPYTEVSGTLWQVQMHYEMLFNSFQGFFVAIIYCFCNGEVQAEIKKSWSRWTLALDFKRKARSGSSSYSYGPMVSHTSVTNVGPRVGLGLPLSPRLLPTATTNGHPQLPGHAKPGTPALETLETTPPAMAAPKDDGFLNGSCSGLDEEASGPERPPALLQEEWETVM

activation, inactive:
O=C(Cc1c(Cl)cccc1Cl)Nc1ccncc1Cl -19%, COc1ccc(CN2CCC(C(=O)NC(C)c3cccc4ccccc34)CC2)cc1 (centres undefined) -16%, OCc1cn(-c2ccccc2)nc1-c1ccc(Br)cc1 -10.5%, CC1CCN(CCC(=O)N2CCCc3c2c(=O)oc2ccc(O)cc32)CC1 -12.1% [at 57.5 µM], CCN(CC)Cc1c(C(=O)N/N=C/c2ccncc2)nnn1-c1nonc1N -3.01%, Cc1cccc2c1Sc1ccc(Cl)cc1CC2N1CCNCC1 (centres undefined) -30.1%, O=C(NC(=O)c1ccccc1O)c1ccc(C(F)(F)F)cc1 -25.5%, Cc1cc(C)cc(NC(=S)N2CCN(c3ncc(C(F)(F)F)cc3Cl)CC2)c1 -21.2%, CCOC(=O)c1ccc(NNC(=O)CC)c([N+](=O)[O-])c1 -7.14%, COc1cc(O)cc(O)c1C(=O)/C=C/c1ccccc1 -51.6%

activation, inconclusive:
O=C(CCN1C(=O)/C(=C/c2ccc(Cl)cc2)SC1=S)NC1C=CS(=O)(=O)C1 (centres undefined) 37.8% [activator], COCCCNC(=O)CSC1=Nc2ccccc2C2=NC(CC(=O)NCc3ccccc3)C(=O)N12 (centres undefined) 33.7% [activator] [at 57.5 µM], Cc1nn(C(=O)c2ccc(Br)cc2)c(C)c1Sc1ccccc1 47.9% [activator], CCN(C(=O)C1CC1)C1CCS(=O)(=O)C1 (centres undefined) 57.2% [activator], O=C(Nc1ccccn1)C1CCN(S(=O)(=O)c2ccc3c(c2)OCCCO3)CC1 -45% [activator], O=C(Nc1ccc2c(c1)OCO2)N1CCOCC1 133% [activator] [at 57.5 µM], Cc1cccc(NC(=O)C2CCC(CNS(=O)(=O)c3ccc4c(c3)CCCC(=O)N4)CC2)c1C (centres undefined) -53.1% [activator]

Potency, inconclusive:
O=C(NC(=S)N(CCO)Cc1ccccc1)c1cc(Br)ccc1Cl 126 µM [activator, single point], O=C(NC1CCN(Cc2ccccc2)CC1)C12CC3CC(CC(C3)C1)C2 44.7 µM [activator, single point], CCOC(=O)C1(C)C=C(Nc2ccc(C(=O)O)cc2)C(=O)N1c1ccc(C(=O)O)cc1 (centres undefined) 100 µM [activator, single point], COc1ccc(C(=O)O/N=C(\N)Cc2ccc(Cl)c(Cl)c2)cc1OC 63.1 µM [activator, partial curve, poor fit], COc1ccc(CN(CC2CCC(C(=O)O)CC2)C(=S)Nc2cc(C)cc(C)c2)cc1 (centres undefined) 17.8 µM [activator, full curve], COc1ccc(NC(=O)CSc2nnc(CNC(=O)c3ccco3)o2)cc1 14.1 µM [activator, partial curve], CCOC(=O)c1ccc(S(=O)(=O)N2CCN(CC3CC=CCC3)CC2)cc1 (centres undefined) 1.26 µM [activator, full curve, poor fit], COC(=O)CN1C(=O)COc2ccc(S(=O)(=O)N3CCCC3)cc21 141 µM [activator, single point], CCCCNc1c2c(nc3c(-c4ccccc4)c(C)nn13)CCC2 1.12 µM [activator, full curve, poor fit], CSCCC(NC(=O)c1ccccc1Cl)C(=O)NCCOc1ccccc1 (centres undefined) 79.4 µM [activator, partial curve, poor fit], CCCCC(=O)Nc1nc2ccc3nc(C)sc3c2s1 126 µM [activator, single point], O=C1CC[C@@H]2CC3(C[C@@H]4CCN1[C@H]24)Nc1cc(Cl)ccc1NC3=NC1CCCCC1 (some centres undefined) 7.08 µM [activator, partial curve], Nc1nc2ccc(Cl)cc2cc1C(=O)NC1CC1 141 µM [activator, single point], COc1ccc(OCC(O)CN2CCN(c3ccc(OC)cc3)CC2)cc1 (centres undefined) 112 µM [activator, partial curve, poor fit], CC(=O)c1cc2c(C)cc(=O)oc2cc1O 39.8 µM [activator, single point], CC(C)(CNC(=O)C1CCCN1C(=O)c1cccs1)N1CCOCC1 (centres undefined) 39.8 µM [activator, partial curve, poor fit], Cc1noc(NS(=O)(=O)c2ccc(N/C=C/C(=O)c3ccncc3)cc2)c1C 35.5 µM [activator, partial curve, poor fit], CCC1=Nc2cc(C(=O)NCc3cccnc3)ccc2Sc2ccc(C)cc21 35.5 µM [activator, single point], C[C@@H]1CN([C@@H](C)CO)C(=O)CCCn2nncc2CO[C@H]1CN(C)Cc1cccc(C(F)(F)F)c1 141 µM [activator, single point], COC(=O)C1CCN(C(=O)COC(=O)CNC(=O)c2ccc(Cl)cc2Cl)CC1 39.8 µM [activator, full curve, poor fit], Cc1c(Cl)cccc1NC(=O)CCN1C(=O)c2ccccc2Sc2ncccc21 126 µM [activator, partial curve, poor fit], O=C(Nc1nccs1)c1ccc(COc2ccc(F)cc2)o1 3.16 µM [activator, single point], O=C(O)CN1CCc2ccccc2C1 28.2 µM [activator, single point], CCN(CC)CCSc1nnc2c3cc(F)ccc3n(C)c2n1 5.01 µM [activator, partial curve], COc1ccc(-c2cc3cc(OC)c(OC)cc3c(C)n2)cc1C 126 µM [activator, single point], COc1ccc(S(=O)(=O)NC(C)C(=O)NCc2cccnc2)cc1OC (centres undefined) 141 µM [activator, single point], O=C(Nc1ccon1)c1ccc(Br)s1 89.1 µM [activator, partial curve, poor fit], O=C(Cn1c(SCC(=O)N2CCc3ccccc32)nc2ccccc21)NC1CCCC1 35.5 µM [activator, single point], CCOC(=O)c1c(C)n(O)c2ccc(Cl)cc2c1=O 14.1 µM [activator, single point], Cc1ccc(/C(N)=N/OC(=O)N2c3ccccc3Sc3ccccc32)cc1 39.8 µM [activator, single point], OCCOCCn1c(-c2ccccc2)nc(=S)c2c1CCCC2 112 µM [activator, single point], CC(=O)Cn1ncc(N2CCOCC2)c(Br)c1=O 8.91 µM [activator, partial curve, poor fit], CCOc1ccc(-c2cc3nc(C4CCN(C(=O)OC(C)(C)C)CC4)c(C(=O)Nc4ccc(C(=O)OC)cc4)cn3n2)cc1 158 µM [activator, single point], CCCCn1c(N)c(N(CC(C)C)C(=O)C2CCC2)c(=O)[nH]c1=O 8.91 µM [activator, partial curve], COC(CNC(=O)C(=O)Nc1cc2c3c(c1)CCN3C(=O)CC2)OC 56.2 µM [activator, partial curve, poor fit], Cc1ccc(-n2ccc(=O)c(C(=O)Nc3ccc(S(=O)(=O)Nc4onc(C)c4C)cc3)n2)cc1 2.51 µM [activator, partial curve, poor fit], Cc1cc(=O)[nH]c2nnc(SCC(=O)Nc3cc(C(F)(F)F)ccc3Cl)n12 112 µM [activator, single point], Cc1cccc(C)c1OCC(O)CN (centres undefined) 39.8 µM [activator, single point], C=CCOc1nc2c(c(=O)n(C)c(=O)n2C)n1Cc1ccccc1Cl 35.5 µM [activator, single point], Cc1ccc(CC(=O)NCC(O)c2ccccc2)cc1 (centres undefined) 50.1 µM [activator, single point], CN(CCCNC(=O)C1CCN(S(=O)(=O)c2cccc3nsnc23)CC1)Cc1ccccc1 56.2 µM [activator, single point], CCOC(=O)c1c(C)oc2nc(C)nc(N3CCN(c4ccc(C)cc4C)CC3)c12 44.7 µM [activator, partial curve, poor fit], COc1ccc(S(=O)(=O)NCCc2ccccc2)cc1OC 7.08 µM [activator, full curve, poor fit]

Potency, inactive:
C(#Cc1ccccc1)CN1CCN(c2ccccn2)CC1

outcome, inactive:
O=C(NC1CC(=O)N(c2ccc(F)cc2)C1)C1CC1 (centres undefined), Cc1cc(C)cc(NC(=O)CCCc2nc(-c3ccccc3Cl)no2)c1, CC(C)[C@H](NC(=O)c1c(F)cccc1F)C(=O)Nc1cccc(Br)c1, COc1ccccc1N(C(=O)CNC(=O)c1ccco1)C(C(=O)NC1CCCC1)c1ccco1 (centres undefined), O=C(Cc1cccs1)N1CCN(S(=O)(=O)c2ccc(F)c(F)c2)CC1, O=C(O)c1cccc2cccnc12, CCNC(=S)N/N=C/c1cn(Cc2ccc(F)cc2)c2ccccc12, O=C(Cn1cnc2c(OCc3ccccc3)ncnc21)N[C@H](CO)Cc1cc2ccccc2[nH]1

— PubChem BioAssay AID743266 (National Center for Advancing Translational Sciences (NCATS), 2014)
